Library screen at single concentrations

Amino acid sequences for entries named in this document (tags omitted). Residues count along the entry.
UniProt Q4DA54, 1-478: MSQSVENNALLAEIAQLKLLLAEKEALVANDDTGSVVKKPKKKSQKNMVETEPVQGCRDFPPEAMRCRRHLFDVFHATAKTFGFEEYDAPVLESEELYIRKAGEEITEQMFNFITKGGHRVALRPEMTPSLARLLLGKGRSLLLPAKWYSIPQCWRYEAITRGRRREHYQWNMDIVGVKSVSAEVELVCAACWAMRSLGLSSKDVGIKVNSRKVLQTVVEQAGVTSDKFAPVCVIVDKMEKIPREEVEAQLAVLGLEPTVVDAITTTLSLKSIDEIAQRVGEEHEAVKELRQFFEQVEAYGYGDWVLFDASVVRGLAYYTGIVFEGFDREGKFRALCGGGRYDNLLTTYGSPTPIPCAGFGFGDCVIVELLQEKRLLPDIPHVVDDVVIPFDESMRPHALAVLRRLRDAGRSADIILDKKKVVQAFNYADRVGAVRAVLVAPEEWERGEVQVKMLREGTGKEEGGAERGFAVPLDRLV
UniProt A4I591, 1-473: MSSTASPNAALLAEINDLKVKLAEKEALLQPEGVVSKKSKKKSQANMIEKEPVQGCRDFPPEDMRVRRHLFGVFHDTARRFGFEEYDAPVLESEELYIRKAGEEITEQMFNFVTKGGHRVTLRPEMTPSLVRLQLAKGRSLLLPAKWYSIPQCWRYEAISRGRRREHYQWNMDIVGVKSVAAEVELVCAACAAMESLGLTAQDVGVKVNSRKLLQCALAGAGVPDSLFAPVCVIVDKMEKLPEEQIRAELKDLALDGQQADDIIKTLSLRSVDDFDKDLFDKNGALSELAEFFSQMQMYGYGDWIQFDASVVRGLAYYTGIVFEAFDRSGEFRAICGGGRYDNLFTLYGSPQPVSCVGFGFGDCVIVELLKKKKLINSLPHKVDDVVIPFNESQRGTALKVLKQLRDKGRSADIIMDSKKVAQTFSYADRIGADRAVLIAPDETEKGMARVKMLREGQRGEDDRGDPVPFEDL

Data taken from ChEMBL document CHEMBL3988442, “University of Dundee, Small-Polar-MMV Screening Library” (2021).

Toxoplasma: 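Assay of Toxoplasma gondii numbers, read through their beta-galactosidase reporter with a colour substrate. Tested at 10 µM. Higher reads as fewer parasites (inferred from which compounds were picked for retests). Size under these conditions: about 67,000 compounds, about 260 of them at 50% or above in at least one test.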
TcHisRS: 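Enzyme assay of histidyl-tRNA synthetase; the read-out is not stated. Target: Histidine-tRNA ligase, Trypanosoma cruzi CL Brener (UniProt Q4DA54). Compounds at 30 µM. The record gives no direction; compounds that gave an IC50 in retests scored well above the rest, so higher reads as stronger inhibition. About 69,000 compounds were tested under these conditions; 0.045% (about 31) showed 50% or more at least once.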
LiHisRS: 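Histidine-tRNA ligase, Leishmania infantum (UniProt A4I591). Enzyme assay of histidyl-tRNA synthetase; the read-out is not stated. Compounds at 30 µM. Direction is inferred from retests: higher values go with stronger inhibition. The assay is labelled LdHisRS but filed under L. infantum. About 69,000 compounds were tested under these conditions; 0.6% (about 410) showed 50% or more at least once.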
T. brucei: 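Whole-parasite assay of Trypanosoma brucei over 72 hours; the read-out is not stated. Tested at 30 µM. Direction is inferred from retests: higher values go with stronger inhibition. Values scatter widely below zero; nearly all retest evidence comes from the higher of the two concentrations used. About 64,000 compounds were tested under these conditions; 1.5% (about 940) showed 50% or more at least once.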

The filed quantity is “Percent Effect” (%).
The record does not define 0% and 100%; most values in the screen are far below 50% and negative numbers occur (in some assays of this library far below -100).
This is an unselected part of the compounds tested.
A dash means the value is not listed here; it may have been measured.

- COc1c(C)cnc(CN(C)C(=O)c2ccccc2F)c1C | Toxoplasma: 7.528%; TcHisRS: 6.723%; LiHisRS: 8.264%; T. brucei: 0.253%
- COc1cc(OC)cc(-c2cc(N)on2)c1 | Toxoplasma: 7.733%; TcHisRS: 7.292%; LiHisRS: 8.333%
- O=C(CSc1ccccc1Cl)NS(=O)(=O)c1ccc2c(c1)OCCO2 | Toxoplasma: 6.775%; TcHisRS: -6.464%; LiHisRS: 5.6%; T. brucei: -2.714%
- O=C(NCc1cc2n(n1)CCCNC2)c1cn2cc(Cl)ccc2n1 | Toxoplasma: 3.96%; TcHisRS: 7.65%; LiHisRS: 8.219%; T. brucei: -43.59%
- Cc1cnc(C(NC(=O)NCC2(CO)CC2)C2CC2)s1 (stereo unspecified) | Toxoplasma: 1.827%; TcHisRS: 7.018%; LiHisRS: 1.786%; T. brucei: -22.69%
- Cc1cccc(C(=O)N2CCC(c3n[nH]c(C4CC4)n3)CC2)c1 | Toxoplasma: -15.44%; TcHisRS: 0.5634%; LiHisRS: 14.78%; T. brucei: 4.693%
- CCN(CC)C(=O)c1ccc(NC(=O)CNc2ccc(F)cc2Cl)cc1 | Toxoplasma: 4.776%; TcHisRS: 4.348%; LiHisRS: 28.57%; T. brucei: 33.73%
- OCC1(CC2CCCCO2)CCN(c2cnc3ccccc3n2)CC1 (stereo unspecified) | Toxoplasma: -16.49%; TcHisRS: -10.63%; LiHisRS: 17.5%
- Cn1ncc2c1C(COCC1CC1)CN(C(=O)c1cscn1)C2.O=C(O)C(F)(F)F (stereo unspecified) | Toxoplasma: -0.6471%; T. brucei: 21.88%
- [H][C@@]12CCN(Cc3cc(C)on3)C[C@@]1([H])O[C@H](c1nccs1)C2 | Toxoplasma: -10.41%; T. brucei: 7.546%
- O=C(O)C(F)(F)F.[H][C@@]12COC[C@]1([H])[C@@H](OCC1CCOCC1)CN2Cc1ccc(C)o1 | Toxoplasma: 24.85%; T. brucei: -13.76%
- [H][C@@]12CCN(C)[C@]1([H])CN(C(=O)c1csc(NC)n1)C2 | Toxoplasma: 10.37%; T. brucei: -24.44%
- Cn1cccc1C(=O)NC[C@H]1C[C@@H]2CN(C(=O)c3ccno3)C[C@H]2O1 | TcHisRS: 3.681%; LiHisRS: 13.68%
- O=C([C@@H]1CCCO1)N1CCC(Cn2cc(-c3ccsc3)nn2)CC1 | Toxoplasma: -4.696%; TcHisRS: 2.326%; LiHisRS: 6.557%; T. brucei: -7.949%
- O=C(NCC1CC1)[C@H]1C[C@H]2OCC[C@H]2N(CCc2ccccc2)C1 | TcHisRS: 6.077%; LiHisRS: 10.53%
- CN(c1ccc(C(=O)NCCN2CCOCC2)c(Cl)c1)S(C)(=O)=O | Toxoplasma: 17.26%; TcHisRS: 1.345%; LiHisRS: 8.235%; T. brucei: -12.11%
- CN(C)CC1CCN(Cc2nccn2CC(F)(F)F)CC1 | Toxoplasma: 10.9%; TcHisRS: 8.442%; LiHisRS: 9.677%; T. brucei: -14.08%
- O=C(NCCc1ccccn1)N1CCSC2(CCCCC2)C1 | Toxoplasma: -8.537%; TcHisRS: 3.704%; LiHisRS: 17.2%; T. brucei: -13.1%
- COCCC(=O)N1CCCC2(CCC(=O)N(CCc3c[nH]cn3)C2)C1 (stereo unspecified) | Toxoplasma: 3.195%; TcHisRS: 2.97%; LiHisRS: 20.55%; T. brucei: -44.59%
- Fc1cccc(F)c1Cn1c(C2CCNCC2)cc2cccnc21 | TcHisRS: 8.333%; LiHisRS: 18.31%
- CCc1c(O)n(C(C)CC)c(SCC(=O)c2ccccc2)nc1=O (stereo unspecified) | Toxoplasma: 19.93%; TcHisRS: -18.5%; LiHisRS: 12.37%; T. brucei: -0.456%

Repeated from the top, 2 entries:

structure,Toxoplasma,TcHisRS,LiHisRS,T. brucei
COc1c(C)cnc(CN(C)C(=O)c2ccccc2F)c1C,7.528,6.723,8.264,0.253
COc1cc(OC)cc(-c2cc(N)on2)c1,7.733,7.292,8.333,-